For assay [1], the target named is GST-EBNA2 446-474 (wt) (Epstein-Barr virus (B95-8)) (UniProt P12978). Put plainly: pull-down; GST-EBNA2 446-474 (wt or phosphorylation mutants) on beads as bait; cellular proteins from DG75 cells; Western blot with GST- and p300-specific antibodies, signals quantified and normalized to wt; only the target purified. In general terms: In western blotting, separated proteins are transferred to a membrane and probed.

The target in assay [2] is EBNA2 fragment 327–487 (Epstein-Barr virus (B95-8)) (UniProt P12978). In words: co-IP; DG75 B cells transfected with HA-tagged or (smaller fragments) GFP-tagged EBNA2 fragments; IP of the fragment, endogenous PLK1 detected by Western blot.
For assay [3], the target named is EBNA2 fragment 342–474 (Epstein-Barr virus (B95-8)) (UniProt P12978). The assay is described as above.
The target in assay [4] is EBV nuclear antigen 2 (EBNA2), endogenous in EBV-infected lymphoblastoid cell lines (Epstein-Barr virus (recombinant strain 2089, based on strain B95-8)) (UniProt P12978). Put plainly: co-IP; total cell lysates of LCLs infected with EBV 2089; IP with EBNA2- or PLK1-specific or isotype-matched control antibodies; both proteins endogenous; Western blot.
For assay [5], the target named is GST-EBNA2 342–422 (not phosphorylated) (Epstein-Barr virus (B95-8)) (UniProt P12978). In words: pull-down; GST-EBNA2 342–422 (wt or S379A, with or without Cyclin B/CDK1 phosphorylation) on glutathione beads; PLK1 from total cellular extracts; Western blot; only the target purified.
Assay [6] concerns the target HA-EBNA2, doxycycline-induced in DG75 Dox HA-EBNA2 cells (Epstein-Barr virus (B95-8)) (UniProt P12978). Put plainly: co-IP; DG75 B cells expressing HA-tagged EBNA2 wt or point mutants (transfected or doxycycline-induced); IP of EBNA2, endogenous PLK1 detected by Western blot; 1% NP-40 lysis buffer, 150 mM NaCl, 4°C.
Assay [7] has as its target HA-tagged EBNA2 (wild type), transfected (Epstein-Barr virus (B95-8)) (UniProt P12978). The assay is described as above.

These are yes or no findings as the source states them, for the method shown. Binding seen in cells or lysates may run through a third protein. Some results given as binding are weak or reduced against the parent protein; the word gives no strength.

Regarding “histone acetylase and co-activator p300, endogenous (from UniProt Q09472 1-2414)”, the binding entry in assay [1] is listed as “binds”.

With “polo-like kinase 1 (PLK1), endogenous (from UniProt P53350 1-603) (enzyme)”, the binding entry in assay [2] is recorded as “binds”; in assay [3], “binds”; in assay [4], “binds”; in assay [5], “binds weakly”; in assay [6], “binds”; in assay [7] it was “binds”.
